Results are given in words; binding and its absence hold for the method and conditions named. In cells and extracts the contact can be indirect. Here binding means that the protein was enriched with, or labelled near, the bait; the list need not be complete.

Sequences of proteins named here, by UniProt entry; tags and fusion partners are left off.
UniProt Q99496: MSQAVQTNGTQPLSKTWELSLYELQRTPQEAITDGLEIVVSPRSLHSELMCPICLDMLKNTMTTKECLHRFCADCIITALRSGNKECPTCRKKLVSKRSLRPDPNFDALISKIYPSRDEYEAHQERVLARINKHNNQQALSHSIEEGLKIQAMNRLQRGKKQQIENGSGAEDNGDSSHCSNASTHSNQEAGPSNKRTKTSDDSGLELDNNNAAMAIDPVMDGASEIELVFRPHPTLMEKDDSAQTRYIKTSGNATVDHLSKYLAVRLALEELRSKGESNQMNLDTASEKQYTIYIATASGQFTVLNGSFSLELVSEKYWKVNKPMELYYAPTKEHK
UniProt O00571: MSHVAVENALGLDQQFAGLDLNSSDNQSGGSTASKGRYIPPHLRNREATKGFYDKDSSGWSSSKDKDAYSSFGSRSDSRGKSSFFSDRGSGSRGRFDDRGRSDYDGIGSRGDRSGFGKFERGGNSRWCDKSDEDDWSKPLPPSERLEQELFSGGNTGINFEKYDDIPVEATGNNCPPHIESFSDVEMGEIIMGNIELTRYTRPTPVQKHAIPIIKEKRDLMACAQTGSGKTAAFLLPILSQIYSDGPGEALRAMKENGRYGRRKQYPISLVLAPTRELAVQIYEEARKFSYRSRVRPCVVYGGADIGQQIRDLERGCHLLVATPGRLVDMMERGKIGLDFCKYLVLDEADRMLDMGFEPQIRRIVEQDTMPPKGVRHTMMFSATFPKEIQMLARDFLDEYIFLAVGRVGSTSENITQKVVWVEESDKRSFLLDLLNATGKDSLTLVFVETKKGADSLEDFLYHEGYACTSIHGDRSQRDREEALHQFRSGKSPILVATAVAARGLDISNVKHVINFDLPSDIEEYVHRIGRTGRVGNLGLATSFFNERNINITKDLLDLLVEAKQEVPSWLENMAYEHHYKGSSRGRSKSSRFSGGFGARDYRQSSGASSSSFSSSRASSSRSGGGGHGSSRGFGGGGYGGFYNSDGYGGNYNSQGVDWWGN
UniProt P17844: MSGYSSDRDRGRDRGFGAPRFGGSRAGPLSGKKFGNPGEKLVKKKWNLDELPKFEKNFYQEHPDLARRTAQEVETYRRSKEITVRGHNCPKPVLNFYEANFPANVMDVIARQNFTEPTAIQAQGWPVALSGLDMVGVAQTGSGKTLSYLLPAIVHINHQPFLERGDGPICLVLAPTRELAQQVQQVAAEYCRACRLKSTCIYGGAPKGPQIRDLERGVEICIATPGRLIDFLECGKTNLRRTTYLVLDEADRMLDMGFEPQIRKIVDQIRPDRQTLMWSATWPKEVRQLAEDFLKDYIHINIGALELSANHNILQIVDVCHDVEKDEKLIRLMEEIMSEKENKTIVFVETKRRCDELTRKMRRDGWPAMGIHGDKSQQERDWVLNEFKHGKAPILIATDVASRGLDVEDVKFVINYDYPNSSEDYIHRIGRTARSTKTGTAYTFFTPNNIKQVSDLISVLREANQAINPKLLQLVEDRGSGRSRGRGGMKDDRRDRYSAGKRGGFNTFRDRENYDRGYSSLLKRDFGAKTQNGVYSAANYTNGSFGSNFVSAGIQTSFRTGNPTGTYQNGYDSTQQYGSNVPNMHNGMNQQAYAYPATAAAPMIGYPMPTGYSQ

In this test the target is Ring1b (endogenous, breast cell lines) (human (endogenous in MCF-10A, MCF-7, MDA-MB-231)) (UniProt Q99496). As to the kind of experiment: affinity purification with mass spectrometry; lysates of multiple breast cell lines, IP with anti-Ring1b antibody, SDS-PAGE, silver staining, LC-MS/MS; RIPA lysates.

With “DDX3X (endogenous, breast cell lines) (from UniProt O00571 1-662)”, the binding result is given as “binds”.

Regarding “DDX5 (endogenous, breast cell lines) (from UniProt P17844 1-614)”, the binding entry is on record as “binds”.

Values taken from article PMC7895950.
